Assay results from article PMC6265450.
These are yes or no findings as the source states them, for the method shown. Some binding calls cover weakened binding; strength is not graded here. Where a sequence is shown, tags or fusion partners need not be part of it.

Sequences of proteins named here, by UniProt entry; tags and fusion partners are left off.
UniProt P12004: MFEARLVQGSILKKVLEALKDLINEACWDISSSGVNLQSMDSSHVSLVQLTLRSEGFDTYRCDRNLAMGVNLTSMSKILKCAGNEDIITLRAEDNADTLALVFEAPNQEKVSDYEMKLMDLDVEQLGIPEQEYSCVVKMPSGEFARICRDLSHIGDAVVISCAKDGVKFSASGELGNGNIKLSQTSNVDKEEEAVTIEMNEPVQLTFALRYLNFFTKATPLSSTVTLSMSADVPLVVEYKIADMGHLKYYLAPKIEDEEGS

Molecular target: T1, histidine-tagged helicase-like transcription factor (^hisHLTF) (human) (UniProt Q14527)
T1 sequence: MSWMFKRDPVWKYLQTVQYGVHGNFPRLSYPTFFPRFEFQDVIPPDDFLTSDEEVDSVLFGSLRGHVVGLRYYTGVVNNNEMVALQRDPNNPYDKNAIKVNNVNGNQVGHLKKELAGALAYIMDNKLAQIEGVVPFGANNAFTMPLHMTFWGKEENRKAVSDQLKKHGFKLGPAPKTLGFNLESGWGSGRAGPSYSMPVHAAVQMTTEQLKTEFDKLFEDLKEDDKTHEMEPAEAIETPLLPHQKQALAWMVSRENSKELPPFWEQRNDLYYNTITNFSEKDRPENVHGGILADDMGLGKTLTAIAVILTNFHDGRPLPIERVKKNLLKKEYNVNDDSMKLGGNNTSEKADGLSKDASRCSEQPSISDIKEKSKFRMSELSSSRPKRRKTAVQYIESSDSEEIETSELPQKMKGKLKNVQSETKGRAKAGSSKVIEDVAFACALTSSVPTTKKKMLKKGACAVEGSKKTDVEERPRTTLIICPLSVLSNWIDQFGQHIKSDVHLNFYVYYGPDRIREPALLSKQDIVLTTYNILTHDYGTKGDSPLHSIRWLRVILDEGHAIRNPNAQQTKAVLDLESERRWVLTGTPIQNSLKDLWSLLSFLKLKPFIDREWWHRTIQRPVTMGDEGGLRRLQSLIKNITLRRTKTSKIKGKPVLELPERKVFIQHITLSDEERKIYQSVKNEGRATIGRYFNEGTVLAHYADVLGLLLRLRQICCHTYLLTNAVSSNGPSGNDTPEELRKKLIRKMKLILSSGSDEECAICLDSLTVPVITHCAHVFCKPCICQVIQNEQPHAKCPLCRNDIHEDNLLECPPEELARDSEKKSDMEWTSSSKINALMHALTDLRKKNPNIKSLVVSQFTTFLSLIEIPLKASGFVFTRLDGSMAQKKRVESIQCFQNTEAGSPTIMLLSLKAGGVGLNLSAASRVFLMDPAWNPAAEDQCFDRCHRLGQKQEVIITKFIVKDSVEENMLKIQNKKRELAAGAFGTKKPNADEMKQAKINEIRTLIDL
Assay: pull-down; 10 pmol histidine-tagged protein on Ni-charged IMAC resin; 2.5 pmol PCNA, on ice 5 min; 20 mM HEPES-NaOH pH 7.5, 50 mM NaCl, 10 mM imidazole, 0.2 mg/ml BSA, 1 mM DTT; blot with anti-PCNA; both purified

## proliferating cell nuclear antigen (PCNA) (from UniProt P12004 1-261)
  binding: binds weakly
